# Data from the supplement of paper PMC8728848.
# This is one part of the list.
# What was measured:
# Assay in all cases: glycan array binding signal (z-score within array); higher = stronger binding
# Conditions in all cases: glycan notation: IUPAC condensed, linker removed
# [1] = biological target: GlcNAc(b1-3)Gal(b1-4)GlcNAc(b1-3)Gal(b1-4)GlcNAc(b1-3)GalNAc
# Method in brief: (§1)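 Glycan array data came from 3228 arrays in the Consortium for Functional Glycomics database, and only arrays with an available protein sequence were kept. Glycan names were put into IUPAC-condensed notation, and columns mapping to the same glycan were averaged. The binding signal is a within-array Z-score, averaged across arrays of one protein sequence run at different concentrations or buffers and across linkers. A negative Z-score can be read as non-binding.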
# [2] = biological target: GlcNAc(b1-3)Gal(b1-4)GlcNAc(b1-3)GalNAc
# Method in brief: as §1
# [3] = biological target: GlcNAc(b1-3)Gal(b1-4)GlcNAc(b1-3)[GlcNAc(b1-3)Gal(b1-4)GlcNAc(b1-3)]GalNAc
# Method in brief: as §1
# [4] = biological target: GlcNAc(b1-3)Gal(b1-4)GlcNAc(b1-6)[Gal(b1-3)]GalNAc
# Method in brief: as §1
# [5] = biological target: GlcNAc(b1-3)Gal(b1-4)GlcNAc(b1-6)[GlcNAc(b1-3)Gal(b1-3)]GalNAc
# Method in brief: as §1
# [6] = biological target: GlcNAc(b1-3)Gal(b1-4)GlcNAc(b1-6)[GlcNAc(b1-3)]Gal(b1-4)GlcNAc
# Method in brief: as §1
# [7] = biological target: GlcNAc(b1-3)GalNAc
# Method in brief: as §1
# [8] = biological target: GlcNAc(b1-3)Man
# Method in brief: as §1
# [9] = biological target: GlcNAc(b1-3)[GlcNAc(b1-4)][GlcNAc(b1-6)]GlcNAc
# Method in brief: as §1
# [10] = biological target: GlcNAc(b1-3)[GlcNAc(b1-6)]Gal(b1-4)GlcNAc
# Method in brief: as §1
# [11] = biological target: GlcNAc(b1-3)[GlcNAc(b1-6)]GalNAc
# Method in brief: as §1
# [12] = biological target: GlcNAc(b1-4)Gal(b1-4)GlcNAc
# Method in brief: as §1
# [13] = biological target: GlcNAc(b1-4)GlcNAc
# Method in brief: as §1
# [14] = biological target: GlcNAc(b1-4)GlcNAc(b1-4)GlcNAc
# Method in brief: as §1
# [15] = biological target: GlcNAc(b1-4)GlcNAc(b1-4)GlcNAc(b1-4)GlcNAc(b1-4)GlcNAc
# Method in brief: as §1
# [16] = biological target: GlcNAc(b1-4)GlcNAc(b1-4)GlcNAc(b1-4)GlcNAc(b1-4)GlcNAc(b1-4)GlcNAc
# Method in brief: as §1
# [17] = biological target: GlcNAc(b1-4)[GlcNAc(b1-6)]GalNAc
# Method in brief: as §1
# [18] = biological target: GlcNAc(b1-6)Gal(b1-4)GlcNAc
# Method in brief: as §1
# [19] = biological target: GlcNAc(b1-6)GalNAc
# Method in brief: as §1
# [20] = biological target: GlcNAc6S(b1-3)Gal(b1-4)GlcNAc
# Method in brief: as §1
# [21] = biological target: Kdn(a2-3)Gal(b1-3)GalNAc
# Method in brief: as §1
# [22] = biological target: Kdn(a2-3)Gal(b1-3)GlcNAc
# Method in brief: as §1
# [23] = biological target: Kdn(a2-3)Gal(b1-4)Glc
# Method in brief: as §1
# [24] = biological target: Kdn(a2-3)Gal(b1-4)GlcNAc
# Method in brief: as §1
# [25] = biological target: Kdn(a2-3)Gal(b1-4)[Fuc(a1-3)]GlcNAc
# Method in brief: as §1
# [26] = biological target: Kdn(a2-6)Gal(b1-4)GlcNAc
# Method in brief: as §1
# [27] = biological target: Man(a1-2)Man(a1-2)Man(a1-3)Man
# Method in brief: as §1
# [28] = biological target: Man(a1-2)Man(a1-2)Man(a1-6)[Man(a1-3)]Man
# Method in brief: as §1
# [29] = biological target: Man(a1-2)Man(a1-3)Man
# Method in brief: as §1
# [30] = biological target: Man(a1-2)Man(a1-3)[Man(a1-2)Man(a1-6)]Man
# Method in brief: as §1
# [31] = biological target: Man(a1-2)Man(a1-3)[Man(a1-2)Man(a1-6)]Man(a1-6)[Man(a1-2)Man(a1-2)Man(a1-3)]Man
# Method in brief: as §1
# [32] = biological target: Man(a1-2)Man(a1-3)[Man(a1-2)Man(a1-6)]Man(a1-6)[Man(a1-2)Man(a1-2)Man(a1-3)]Man(b1-4)GlcNAc(b1-4)GlcNAc
# Method in brief: as §1
# [33] = biological target: Man(a1-2)Man(a1-3)[Man(a1-6)]Man(a1-6)[Man(a1-2)Man(a1-3)]Man(b1-4)GlcNAc(b1-4)GlcNAc
# Method in brief: as §1
# [34] = biological target: Man(a1-2)Man(a1-6)[Man(a1-3)]Man(a1-6)[Man(a1-2)Man(a1-2)Man(a1-3)]Man
# Method in brief: as §1
# [35] = biological target: Man(a1-2)Man(a1-6)[Man(a1-3)]Man(a1-6)[Man(a1-2)Man(a1-2)Man(a1-3)]Man(b1-4)GlcNAc(b1-4)GlcNAc
# Method in brief: as §1
# [36] = biological target: Man(a1-3)[Man(a1-6)]Man
# Method in brief: as §1
# [37] = biological target: Man(a1-3)[Man(a1-6)]Man(a1-6)[Man(a1-2)Man(a1-3)]Man(b1-4)GlcNAc(b1-4)GlcNAc
# Method in brief: as §1
# [38] = biological target: Man(a1-3)[Man(a1-6)]Man(a1-6)[Man(a1-3)]Man
# Method in brief: as §1
# [39] = biological target: Man(a1-3)[Man(a1-6)]Man(a1-6)[Man(a1-3)]Man(b1-4)GlcNAc(b1-4)GlcNAc
# Method in brief: as §1
# [40] = biological target: Man(a1-3)[Man(a1-6)]Man(b1-4)GlcNAc(b1-4)GlcNAc
# Method in brief: as §1
# [41] = biological target: Man(a1-3)[Man(a1-6)]Man(b1-4)GlcNAc(b1-4)[Fuc(a1-6)]GlcNAc
# Method in brief: as §1
# [42] = biological target: Man(a1-6)Man
# Method in brief: as §1
# [43] = biological target: Man(b1-4)GlcNAc
# Method in brief: as §1
# [44] = biological target: MurNAc(b1-4)GlcNAc
# Method in brief: as §1
# [45] = biological target: Neu5Ac(a2-3)Gal
# Method in brief: as §1
binder,measurement,setting,value
Aap arpt (Staphylococcus epidermidis) (protein) NNEAPQMSSTLQAEEGSNAEAPQSEPTKAEEGGNAEAAQSEPTKAEEGGNAEAPQSEPTKAEEGGNAEAAQSEPTKTEEGSNVKAAQSEPTKAEEGSNAEAPQSEPTKTEEGSNAKAAQSEPTKAEEGGNAEAAQSEPTKTEEGSNAEAPQSEPTKAEEGGYAEAPQSEPTKTEEGGNAEAPNVPTIKA,glycan array binding signal (z-score),[1],0.379
same,glycan array binding signal (z-score),[2],-0.58
same,glycan array binding signal (z-score),[3],2.15
same,glycan array binding signal (z-score),[4],-0.695
same,glycan array binding signal (z-score),[5],-1.01
same,glycan array binding signal (z-score),[6],-0.039
same,glycan array binding signal (z-score),[7],1.32
same,glycan array binding signal (z-score),[8],-1.29
same,glycan array binding signal (z-score),[9],-1.73
same,glycan array binding signal (z-score),[10],-0.555
same,glycan array binding signal (z-score),[11],-0.237
same,glycan array binding signal (z-score),[12],0.285
same,glycan array binding signal (z-score),[13],-0.21
same,glycan array binding signal (z-score),[14],0.473
same,glycan array binding signal (z-score),[15],-0.328
same,glycan array binding signal (z-score),[16],-0.669
same,glycan array binding signal (z-score),[17],-0.748
same,glycan array binding signal (z-score),[18],-0.338
same,glycan array binding signal (z-score),[19],3.2
same,glycan array binding signal (z-score),[20],0.192
same,glycan array binding signal (z-score),[21],-0.439
same,glycan array binding signal (z-score),[22],0.097
same,glycan array binding signal (z-score),[23],1.18
same,glycan array binding signal (z-score),[24],0.093
same,glycan array binding signal (z-score),[25],0.815
same,glycan array binding signal (z-score),[26],2.33
same,glycan array binding signal (z-score),[27],-1.07
same,glycan array binding signal (z-score),[28],-0.012
same,glycan array binding signal (z-score),[29],-1.35
same,glycan array binding signal (z-score),[30],-1
same,glycan array binding signal (z-score),[31],0.419
same,glycan array binding signal (z-score),[32],-0.725
same,glycan array binding signal (z-score),[33],-1.42
same,glycan array binding signal (z-score),[34],-2.21
same,glycan array binding signal (z-score),[35],-0.732
same,glycan array binding signal (z-score),[36],-0.199
same,glycan array binding signal (z-score),[37],0.056
same,glycan array binding signal (z-score),[38],-2.02
same,glycan array binding signal (z-score),[39],0.688
same,glycan array binding signal (z-score),[40],-0.21
same,glycan array binding signal (z-score),[41],1.13
same,glycan array binding signal (z-score),[42],-0.965
same,glycan array binding signal (z-score),[43],-0.455
same,glycan array binding signal (z-score),[44],-1.3
same,glycan array binding signal (z-score),[45],-1.51

# 9 entries from above in another layout:
binder | measurement | setting | value
Aap arpt (Staphylococcus epidermidis) (protein) NNEAPQMSSTLQAEEGSNAEAPQSEPTKAEEGGNAEAAQSEPTKAEEGGNAEAPQSEPTKAEEGGNAEAAQSEPTKTEEGSNVKAAQSEPTKAEEGSNAEAPQSEPTKTEEGSNAKAAQSEPTKAEEGGNAEAAQSEPTKTEEGSNAEAPQSEPTKAEEGGYAEAPQSEPTKTEEGGNAEAPNVPTIKA | glycan array binding signal (z-score) | [16] | -0.669
same | glycan array binding signal (z-score) | [17] | -0.748
same | glycan array binding signal (z-score) | [18] | -0.338
same | glycan array binding signal (z-score) | [19] | 3.2
same | glycan array binding signal (z-score) | [20] | 0.192
same | glycan array binding signal (z-score) | [21] | -0.439
same | glycan array binding signal (z-score) | [22] | 0.097
same | glycan array binding signal (z-score) | [23] | 1.18
same | glycan array binding signal (z-score) | [24] | 0.093
